Legend:
[1] = test system: A. tuberculatus F1(S) hybrid (maternal parent S); experiment: Herbicide dose-response on whole plants, F1(S) line; format: in vivo, Amaranthus tuberculatus (waterhemp); settings: degree of dominance from log(GR50)
[2] = test system: A. tuberculatus F1(R) hybrid (maternal parent R); experiment: Herbicide dose-response on whole plants, F1(R) line; format: in vivo, Amaranthus tuberculatus (waterhemp); settings: degree of dominance from log(GR50)

For `CCOC(=O)C(C)OC(=O)c1cc(Oc2ccc(C(F)(F)F)cc2Cl)ccc1[N+](=O)[O-]` (racemic) [Lactofen, (±)-2-ethoxy-1-methyl-2-oxoethyl 5-{2-chloro-4-(trifluoromethyl)phenoxy}-2-nitrobenzoate], which “Dominance F1(S)” value ([1]; 10 DAT) is on record?
The value was 0.56.

And the “Dominance F1(S)” value ([1]; 15 DAT)?
The value was 0.76.

And the “Dominance F1(R)” value ([2]; 10 DAT)?
The value was −0.06.

And the “Dominance F1(R)” value ([2]; 15 DAT)?
Its value is 0.72.

— patent publication US7842856B2, “Herbicide resistance gene, compositions and methods” (The Board of Trustees of the University of Illinois, priority 2005, dated 2010)
